Data on 21 compounds can be found in the supplement of paper PMC12889115.

This assay relates to Salmonella enterica serovar Typhimurium SL1344. Put plainly: bacterial growth OD600 after 18 h with compound and polymyxin B; higher = more bacterial growth (less inhibition). The conditions noted are these: 50 µM, Mueller-Hinton broth.

The list shows a part of the results. These are raw signals, not scaled to a control.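 Primary screen: polymyxin B was added at a level permeabilizing Salmonella outer membranes while sparing inner membranes. DMSO wells, both with and without polymyxin B, established maximum growth. Plate-to-plate variation meant each plate was ranked on its own, and the lowest-OD600 compounds were selected as hits.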

With `OCCN(Cc1nc(-c2ccc3c(c2)OCO3)no1)Cc1cccs1`, under “polymyxin B 1 µg/mL”, the “bacterial growth OD600” value was 0.993. As for `CN(CCc1ccccn1)c1ncccc1CNC(=O)c1ccoc1`, the “bacterial growth OD600” value (polymyxin B 1 µg/mL) was found to be 1.03. `CCOC(=O)C1(CCCc2ccccc2)CCN(C(=O)c2ccoc2C)CC1`: the “bacterial growth OD600” value (polymyxin B 1 µg/mL) was 0.036. `O=C(NC1CCOC1)c1cc(Cl)ccc1OC1CCN(C2CCCC2)CC1` (stereo unspecified): under “polymyxin B 0.75 µg/mL”, the “bacterial growth OD600” value is 0.779.

On to `O=C(C1CCOCC1)N1CCCC(CCc2ccccc2)C1` (stereo unspecified), for which the “bacterial growth OD600” value (polymyxin B 0.75 µg/mL) amounted to 0.739.

Consider `COC(C(=O)Nc1ccnn1C1CCN(C(=O)CCC(F)(F)F)CC1)c1ccccc1` (stereo unspecified), for which, where the note is “polymyxin B 1 µg/mL”, the “bacterial growth OD600” value was determined as 0.894. With `OC1CCN([C@@H]2CCN(Cc3cnn(-c4ccc(F)cc4)c3)C[C@H]2O)CC1`, where the note is “polymyxin B 1 µg/mL”, the “bacterial growth OD600” value turned out to be 1.09. Still for that read-out and setting: the same measure for `Cc1nc(CN2CC[C@@H](N3CCN(CCc4ccccc4)CC3)[C@H](O)C2)c[nH]1`: 1.02; for `O=C(c1ccc(-c2ccccc2)c(F)c1)C1CCCN(C(=O)CCC(F)(F)F)C1` (stereo unspecified): 0.801. Turning to `CC(C)NC(=O)NCc1cccnc1Oc1cccc(C(F)(F)F)c1`, the “bacterial growth OD600” value (polymyxin B 0.75 µg/mL) amounted to 0.124. On to `COc1ccc(OC)c(C2CCN(C(=O)c3cn(CCN4CCCCC4)nn3)C2)c1` (stereo unspecified), for which the “bacterial growth OD600” value (polymyxin B 1 µg/mL) is 1.08. Consider `Cc1oc(-c2ccccc2NC(=O)C2CCC2)nc1CNC(=O)C(C)Oc1cccc(Cl)c1` (stereo unspecified), for which the “bacterial growth OD600” value (polymyxin B 0.75 µg/mL) was determined as 0.006. Consider `COCc1ccc(C(=O)NC(C)c2cnn(-c3ccccc3C)c2C)o1` (stereo unspecified), for which the “bacterial growth OD600” value (polymyxin B 1 µg/mL) amounted to 0.765. In the case of `COc1cc(CNC(=O)CCN2Cc3cc(Cl)ccc3OC(C)C2)cc(OC)c1OC` (stereo unspecified), the “bacterial growth OD600” value (polymyxin B 0.75 µg/mL) was found to be 0.837. For `O=C(NCc1ccc(F)cc1)c1ccc(OC2CCN(C(=O)C3CC3)CC2)cc1`, the “bacterial growth OD600” value (polymyxin B 1 µg/mL) was 1.01. For `Cc1ccc2c(c1)CN(CCNC(=O)CSc1ccccc1)CC(C)O2` (stereo unspecified), for the setting “polymyxin B 0.75 µg/mL”, the “bacterial growth OD600” value came to 0.795. As for `Cc1ccc(CN(C)c2ccc(C(=O)NCCC3CCCCN3C)cn2)o1` (stereo unspecified), the “bacterial growth OD600” value (polymyxin B 1 µg/mL) is 0.91. As for `O=C(CCCn1cncn1)N1CCOc2ccc(CN3CCC(OCc4ccccc4)CC3)cc2C1`, the “bacterial growth OD600” value (polymyxin B 0.75 µg/mL) worked out at 0.858. On to `Cc1cn2c(C(=O)N(C)CC3CCCN(CCc4ccccc4F)C3)csc2n1` (stereo unspecified), for which, for the setting “polymyxin B 0.75 µg/mL”, the “bacterial growth OD600” value is 0.892. Same read-out and setting: the same measure for `Fc1ccccc1OC1CCN(Cc2nc(-c3ccccn3)no2)CC1`: 0.792; for `CO[C@H]1[C@H](NC(=O)c2ccccn2)c2ccccc2C12CCN(C(=O)C#Cc1ccccc1)CC2`: -0.003.
